Reference: the supplement of paper PMC8728848
Some of the results follow.

Assays:
Experiment in all cases: glycan array binding signal (z-score within array); higher = stronger binding
Settings in all cases: glycan notation: IUPAC condensed, linker removed
[1] = target: Fuc(a1-3)[Gal3S(b1-4)]GlcNAc6S
Outline: (§1)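 The Consortium for Functional Glycomics database supplied 3228 glycan arrays, of which those lacking an available protein sequence were dropped. The binding signal, a within-array Z-score, was averaged across arrays of the same protein sequence and across linkers. Negative scores can be read as non-binding.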

[2] = target: Fuc(a1-3)[GalNAc(b1-4)]GlcNAc
Outline: as §1

[3] = target: Fuc(a1-3)[GalNAc(b1-4)]GlcNAc6S
Outline: as §1

Fuc(a1-4)GlcNAc = target: Fuc(a1-4)GlcNAc
Outline: as §1

Fuc(b1-3)GlcNAc = target: Fuc(b1-3)GlcNAc
Outline: as §1

Gal(a1-2)Gal = target: Gal(a1-2)Gal
Outline: as §1

Gal(a1-3)Gal = target: Gal(a1-3)Gal
Outline: as §1

Gal(a1-3)Gal(b1-3)GlcNAc = target: Gal(a1-3)Gal(b1-3)GlcNAc
Outline: as §1

[4] = target: Gal(a1-3)Gal(b1-3)GlcNAc(b1-2)Man
Outline: as §1

[5] = target: Gal(a1-3)Gal(b1-3)GlcNAc(b1-2)Man(a1-3)[Gal(a1-3)Gal(b1-3)GlcNAc(b1-2)Man(a1-6)]Man(b1-4)GlcNAc(b1-4)GlcNAc
Outline: as §1

[6] = target: Gal(a1-3)Gal(b1-3)GlcNAc(b1-3)GalNAc
Outline: as §1

[7] = target: Gal(a1-3)Gal(b1-3)GlcNAc(b1-6)GalNAc
Outline: as §1

[8] = target: Gal(a1-3)Gal(b1-3)[Fuc(a1-4)]GlcNAc(b1-2)Man(a1-3)[Gal(a1-3)Gal(b1-3)[Fuc(a1-4)]GlcNAc(b1-2)Man(a1-6)]Man(b1-4)GlcNAc(b1-4)GlcNAc
Outline: as §1

Gal(a1-3)Gal(b1-4)Glc = target: Gal(a1-3)Gal(b1-4)Glc
Outline: as §1

Gal(a1-3)Gal(b1-4)GlcNAc = target: Gal(a1-3)Gal(b1-4)GlcNAc
Outline: as §1

[9] = target: Gal(a1-3)Gal(b1-4)GlcNAc(b1-2)Man
Outline: as §1

[10] = target: Gal(a1-3)Gal(b1-4)GlcNAc(b1-2)Man(a1-3)[Gal(a1-3)Gal(b1-4)GlcNAc(b1-2)Man(a1-6)]Man(b1-4)GlcNAc(b1-4)GlcNAc
Outline: as §1

[11] = target: Gal(a1-3)Gal(b1-4)GlcNAc(b1-3)GalNAc
Outline: as §1

[12] = target: Gal(a1-3)Gal(b1-4)GlcNAc(b1-6)GalNAc
Outline: as §1

[13] = target: Gal(a1-3)Gal(b1-4)[Fuc(a1-3)]GlcNAc
Outline: as §1

[14] = target: Gal(a1-3)Gal(b1-4)[Fuc(a1-3)]GlcNAc(b1-2)Man(a1-3)[Gal(a1-3)Gal(b1-4)[Fuc(a1-3)]GlcNAc(b1-2)Man(a1-6)]Man(b1-4)GlcNAc(b1-4)GlcNAc
Outline: as §1

Gal(a1-3)GalNAc = target: Gal(a1-3)GalNAc
Outline: as §1

[15] = target: Gal(a1-3)[Gal(a1-4)]Gal(b1-4)GlcNAc
Outline: as §1

[16] = target: Gal(a1-4)Gal(b1-3)GlcNAc(b1-2)Man(a1-3)[Gal(a1-4)Gal(b1-3)GlcNAc(b1-2)Man(a1-6)]Man(b1-4)GlcNAc(b1-4)GlcNAc
Outline: as §1

Gal(a1-4)Gal(b1-4)Glc = target: Gal(a1-4)Gal(b1-4)Glc
Outline: as §1

Gal(a1-4)Gal(b1-4)GlcNAc = target: Gal(a1-4)Gal(b1-4)GlcNAc
Outline: as §1

[17] = target: Gal(a1-4)Gal(b1-4)GlcNAc(b1-2)Man(a1-3)[Gal(a1-4)Gal(b1-4)GlcNAc(b1-2)Man(a1-6)]Man(b1-4)GlcNAc(b1-4)GlcNAc
Outline: as §1

[18] = target: Gal(a1-4)Gal(b1-4)GlcNAc(b1-3)Gal(b1-4)Glc
Outline: as §1

Gal(a1-4)GlcNAc = target: Gal(a1-4)GlcNAc
Outline: as §1

Gal(a1-6)Glc = target: Gal(a1-6)Glc
Outline: as §1

Gal(b1-2)Gal = target: Gal(b1-2)Gal
Outline: as §1

Gal(b1-3)Gal = target: Gal(b1-3)Gal
Outline: as §1

Gal(b1-3)Gal(b1-4)GlcNAc = target: Gal(b1-3)Gal(b1-4)GlcNAc
Outline: as §1

Gal(b1-3)GalNAc = target: Gal(b1-3)GalNAc
Outline: as §1

[19] = target: Gal(b1-3)GalNAc(a1-3)[Fuc(a1-2)]Gal(b1-4)Glc
Outline: as §1

[20] = target: Gal(b1-3)GalNAc(a1-3)[Fuc(a1-2)]Gal(b1-4)GlcNAc
Outline: as §1

Gal(b1-3)GalNAc(b1-3)Gal = target: Gal(b1-3)GalNAc(b1-3)Gal
Outline: as §1

B1: PX14343E-bfa-545-24-545 (Bacteroides fragilis) (protein)
chain: LDRYPQEELSDGSFWKTPDDANKVVSDLYGYLSTWDQDNDINSDNATMGIKWAAGNVSKGIYDPADQGWSGDYANVRQCNLILSKIDEIPDYPEADKTKALGQVYFFRAYIYFNLIRSFGDVPYIDKPLDLKDMEGITRMPRAEVYEKIMADFDKAIAALPTEWGASDYGRVTKGAAMAMKARAALYYGNWDTAATEAKNVMDLGLYELYDKDNTGKYAELFWEKADGCDEFILVTQFNYPDKTHYLMGWECFPTKGWGGMNPTQSLVDAFEDSEGAPISKSKIYDPTDPFKNRDPRLEVDILHDGEEMYGVTIKVAPLASSGSTGINQHNDATETGYYGQKWLDPSLDPLSDGWNMGKDWVHIRYAEVLLTYAEAKNELQGLDPEAFDAVNQVRRRVGMPELQNTDPSKPTYCATQDDLRQRIRNEWRVEFCLEGGKRMWDIRRWGIAKDVLNAPFEGLKYKIVDNPNDPDKKVDGGKMCILYQGDPIILSGSRYSDNNYLFPVPQSEIDLNPALTQNPGY
Question: With B1 as the binder, how does the “glycan array binding signal (z-score)” value [1] read?
Answer: 0.797

Question: What about the “glycan array binding signal (z-score)” value [2] of the same binder?
Answer: 0.672

Question: And the “glycan array binding signal (z-score)” value [3]?
Answer: 0.495

Question: What about the “glycan array binding signal (z-score)” value (Fuc(a1-4)GlcNAc) of the same binder?
Answer: -0.837

Question: And the “glycan array binding signal (z-score)” value (Fuc(b1-3)GlcNAc)?
Answer: -0.51

Question: And the “glycan array binding signal (z-score)” value (Gal(a1-2)Gal)?
Answer: 0.553

Question: What about the “glycan array binding signal (z-score)” value (Gal(a1-3)Gal) of the same binder?
Answer: -0.002

Question: And the “glycan array binding signal (z-score)” value (Gal(a1-3)Gal(b1-3)GlcNAc)?
Answer: 0.188

Question: What about the “glycan array binding signal (z-score)” value [4] of the same binder?
Answer: -0.223

Question: And the “glycan array binding signal (z-score)” value [5]?
Answer: 0.086

Question: And the “glycan array binding signal (z-score)” value [6]?
Answer: 0.177

Question: And the “glycan array binding signal (z-score)” value [7]?
Answer: 0.238

Question: And the “glycan array binding signal (z-score)” value [8]?
Answer: 2.95

Question: And the “glycan array binding signal (z-score)” value (Gal(a1-3)Gal(b1-4)Glc)?
Answer: -0.693

Question: And the “glycan array binding signal (z-score)” value (Gal(a1-3)Gal(b1-4)GlcNAc)?
Answer: -1.27

Question: And the “glycan array binding signal (z-score)” value [9]?
Answer: -0.268

Question: What about the “glycan array binding signal (z-score)” value [10] of the same binder?
Answer: 4.55

Question: And the “glycan array binding signal (z-score)” value [11]?
Answer: 0.972

Question: And the “glycan array binding signal (z-score)” value [12]?
Answer: 0.58

Question: What about the “glycan array binding signal (z-score)” value [13] of the same binder?
Answer: -0.568

Question: And the “glycan array binding signal (z-score)” value [14]?
Answer: 3.48

Question: And the “glycan array binding signal (z-score)” value (Gal(a1-3)GalNAc)?
Answer: -0.817

Question: And the “glycan array binding signal (z-score)” value [15]?
Answer: -0.842

Question: What about the “glycan array binding signal (z-score)” value [16] of the same binder?
Answer: 2.18

Question: And the “glycan array binding signal (z-score)” value (Gal(a1-4)Gal(b1-4)Glc)?
Answer: 0.889

Question: And the “glycan array binding signal (z-score)” value (Gal(a1-4)Gal(b1-4)GlcNAc)?
Answer: -0.178

Question: What about the “glycan array binding signal (z-score)” value [17] of the same binder?
Answer: -0.239

Question: What about the “glycan array binding signal (z-score)” value [18] of the same binder?
Answer: -0.116

Question: What about the “glycan array binding signal (z-score)” value (Gal(a1-4)GlcNAc) of the same binder?
Answer: -1.08

Question: And the “glycan array binding signal (z-score)” value (Gal(a1-6)Glc)?
Answer: -0.033

Question: And the “glycan array binding signal (z-score)” value (Gal(b1-2)Gal)?
Answer: 0.303

Question: And the “glycan array binding signal (z-score)” value (Gal(b1-3)Gal)?
Answer: -0.397

Question: What about the “glycan array binding signal (z-score)” value (Gal(b1-3)Gal(b1-4)GlcNAc) of the same binder?
Answer: -0.519

Question: What about the “glycan array binding signal (z-score)” value (Gal(b1-3)GalNAc) of the same binder?
Answer: -0.501

Question: What about the “glycan array binding signal (z-score)” value [19] of the same binder?
Answer: 0.05

Question: And the “glycan array binding signal (z-score)” value [20]?
Answer: -0.472

Question: And the “glycan array binding signal (z-score)” value (Gal(b1-3)GalNAc(b1-3)Gal)?
Answer: -0.357
